Measured values from the supplement of paper PMC10849652.
This is one part of the list.

Sequences of proteins named here, by UniProt entry; tags and fusion partners are left off. A change or cut given only in a name is not applied to a line headed by its entry.
UniProt Q9UKU0: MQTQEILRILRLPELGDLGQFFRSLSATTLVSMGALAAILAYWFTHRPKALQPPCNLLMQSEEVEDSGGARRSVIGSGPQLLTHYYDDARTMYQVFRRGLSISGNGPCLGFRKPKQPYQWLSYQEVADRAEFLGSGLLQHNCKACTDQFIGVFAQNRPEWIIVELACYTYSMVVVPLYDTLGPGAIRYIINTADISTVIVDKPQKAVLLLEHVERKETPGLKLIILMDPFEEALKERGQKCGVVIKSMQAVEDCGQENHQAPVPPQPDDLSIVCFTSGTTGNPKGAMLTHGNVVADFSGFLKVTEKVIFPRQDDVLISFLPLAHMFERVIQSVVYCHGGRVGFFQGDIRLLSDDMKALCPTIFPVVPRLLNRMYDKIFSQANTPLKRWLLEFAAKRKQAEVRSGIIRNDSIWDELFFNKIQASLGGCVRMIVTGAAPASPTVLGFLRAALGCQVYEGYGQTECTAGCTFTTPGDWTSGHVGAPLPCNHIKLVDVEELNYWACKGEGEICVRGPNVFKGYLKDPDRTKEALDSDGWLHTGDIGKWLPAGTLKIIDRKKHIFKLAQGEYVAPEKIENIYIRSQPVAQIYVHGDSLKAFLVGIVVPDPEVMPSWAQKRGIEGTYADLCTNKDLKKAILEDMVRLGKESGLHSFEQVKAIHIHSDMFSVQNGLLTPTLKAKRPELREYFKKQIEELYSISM
UniProt P13686: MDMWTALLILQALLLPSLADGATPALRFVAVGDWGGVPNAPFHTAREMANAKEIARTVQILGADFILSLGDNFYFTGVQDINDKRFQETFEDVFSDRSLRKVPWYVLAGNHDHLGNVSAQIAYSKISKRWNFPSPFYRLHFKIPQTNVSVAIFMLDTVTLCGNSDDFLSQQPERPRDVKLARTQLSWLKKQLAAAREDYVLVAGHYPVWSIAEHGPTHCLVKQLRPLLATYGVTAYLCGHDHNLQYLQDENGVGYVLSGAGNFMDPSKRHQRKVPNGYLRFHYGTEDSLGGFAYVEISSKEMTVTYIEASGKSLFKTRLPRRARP
UniProt Q8WYP5: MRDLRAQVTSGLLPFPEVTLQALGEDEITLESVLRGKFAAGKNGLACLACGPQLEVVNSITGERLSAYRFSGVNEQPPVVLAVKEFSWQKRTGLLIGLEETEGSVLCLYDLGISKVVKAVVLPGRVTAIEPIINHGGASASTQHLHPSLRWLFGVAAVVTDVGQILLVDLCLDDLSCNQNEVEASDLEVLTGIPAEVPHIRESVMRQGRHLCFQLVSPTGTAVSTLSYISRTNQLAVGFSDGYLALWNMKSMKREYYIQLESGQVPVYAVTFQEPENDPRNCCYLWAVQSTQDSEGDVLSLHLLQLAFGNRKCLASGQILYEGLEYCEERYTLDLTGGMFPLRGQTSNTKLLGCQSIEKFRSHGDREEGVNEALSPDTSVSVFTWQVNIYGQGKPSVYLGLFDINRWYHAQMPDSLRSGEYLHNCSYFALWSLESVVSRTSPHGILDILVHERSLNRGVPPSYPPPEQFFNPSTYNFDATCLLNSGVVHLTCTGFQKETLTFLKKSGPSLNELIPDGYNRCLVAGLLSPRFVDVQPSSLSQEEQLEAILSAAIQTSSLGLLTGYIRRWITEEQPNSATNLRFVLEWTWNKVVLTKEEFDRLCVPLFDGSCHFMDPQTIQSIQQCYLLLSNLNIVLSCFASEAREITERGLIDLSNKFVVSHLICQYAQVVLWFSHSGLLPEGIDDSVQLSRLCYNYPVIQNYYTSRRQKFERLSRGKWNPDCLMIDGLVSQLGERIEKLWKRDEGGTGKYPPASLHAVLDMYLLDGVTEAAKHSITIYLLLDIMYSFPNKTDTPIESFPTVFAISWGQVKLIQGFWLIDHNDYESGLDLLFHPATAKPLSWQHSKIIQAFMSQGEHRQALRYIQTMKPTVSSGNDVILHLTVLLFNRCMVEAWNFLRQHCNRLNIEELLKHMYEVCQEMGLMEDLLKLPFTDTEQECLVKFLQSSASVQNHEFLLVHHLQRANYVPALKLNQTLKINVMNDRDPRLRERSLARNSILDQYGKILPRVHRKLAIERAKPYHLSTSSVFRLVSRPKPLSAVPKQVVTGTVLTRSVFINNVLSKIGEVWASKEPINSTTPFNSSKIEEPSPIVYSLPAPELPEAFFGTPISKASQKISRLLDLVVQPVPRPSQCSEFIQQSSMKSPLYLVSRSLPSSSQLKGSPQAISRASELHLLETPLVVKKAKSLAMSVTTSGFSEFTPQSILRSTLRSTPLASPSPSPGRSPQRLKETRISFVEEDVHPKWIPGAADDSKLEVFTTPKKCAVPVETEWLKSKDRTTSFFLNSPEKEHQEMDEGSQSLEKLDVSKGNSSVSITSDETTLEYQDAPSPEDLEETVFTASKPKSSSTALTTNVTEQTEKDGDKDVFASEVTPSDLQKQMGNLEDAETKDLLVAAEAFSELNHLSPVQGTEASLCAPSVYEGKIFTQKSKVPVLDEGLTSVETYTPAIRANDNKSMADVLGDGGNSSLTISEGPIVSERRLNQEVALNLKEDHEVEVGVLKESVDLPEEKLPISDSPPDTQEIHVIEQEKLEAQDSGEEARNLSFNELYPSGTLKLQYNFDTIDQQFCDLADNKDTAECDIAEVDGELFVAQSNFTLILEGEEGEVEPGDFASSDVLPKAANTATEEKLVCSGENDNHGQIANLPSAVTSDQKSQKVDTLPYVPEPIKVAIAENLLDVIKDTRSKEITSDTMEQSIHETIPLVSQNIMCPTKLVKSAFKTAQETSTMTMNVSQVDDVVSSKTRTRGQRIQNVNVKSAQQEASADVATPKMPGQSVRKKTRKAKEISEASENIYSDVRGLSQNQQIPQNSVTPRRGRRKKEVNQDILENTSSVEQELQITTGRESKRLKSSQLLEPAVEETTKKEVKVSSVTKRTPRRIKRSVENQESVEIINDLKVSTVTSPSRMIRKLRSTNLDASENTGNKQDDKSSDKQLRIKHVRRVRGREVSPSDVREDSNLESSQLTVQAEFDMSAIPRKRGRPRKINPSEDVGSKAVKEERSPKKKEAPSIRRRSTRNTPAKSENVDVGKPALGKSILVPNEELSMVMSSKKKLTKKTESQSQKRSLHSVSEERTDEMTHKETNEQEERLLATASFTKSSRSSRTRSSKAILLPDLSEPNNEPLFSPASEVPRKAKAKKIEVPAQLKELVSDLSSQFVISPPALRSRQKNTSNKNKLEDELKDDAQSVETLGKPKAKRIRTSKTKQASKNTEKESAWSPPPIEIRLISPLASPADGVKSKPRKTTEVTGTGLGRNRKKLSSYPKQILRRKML
UniProt Q9H6R3: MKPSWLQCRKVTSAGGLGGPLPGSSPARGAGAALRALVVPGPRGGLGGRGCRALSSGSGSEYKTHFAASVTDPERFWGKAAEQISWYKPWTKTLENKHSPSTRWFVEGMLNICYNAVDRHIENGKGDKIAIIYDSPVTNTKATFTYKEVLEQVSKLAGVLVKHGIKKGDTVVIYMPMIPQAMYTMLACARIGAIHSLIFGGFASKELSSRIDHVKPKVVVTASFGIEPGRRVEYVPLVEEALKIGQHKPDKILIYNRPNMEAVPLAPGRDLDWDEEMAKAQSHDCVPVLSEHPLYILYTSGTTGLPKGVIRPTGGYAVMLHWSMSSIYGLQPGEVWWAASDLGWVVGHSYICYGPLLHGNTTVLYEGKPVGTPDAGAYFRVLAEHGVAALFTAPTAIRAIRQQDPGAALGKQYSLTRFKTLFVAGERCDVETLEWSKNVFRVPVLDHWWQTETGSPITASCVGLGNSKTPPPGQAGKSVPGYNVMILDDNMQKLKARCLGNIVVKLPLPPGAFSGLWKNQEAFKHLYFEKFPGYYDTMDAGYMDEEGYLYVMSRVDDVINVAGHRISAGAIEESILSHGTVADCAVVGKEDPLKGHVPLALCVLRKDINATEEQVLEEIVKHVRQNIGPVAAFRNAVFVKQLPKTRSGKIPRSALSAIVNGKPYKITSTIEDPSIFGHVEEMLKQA
UniProt Q04771: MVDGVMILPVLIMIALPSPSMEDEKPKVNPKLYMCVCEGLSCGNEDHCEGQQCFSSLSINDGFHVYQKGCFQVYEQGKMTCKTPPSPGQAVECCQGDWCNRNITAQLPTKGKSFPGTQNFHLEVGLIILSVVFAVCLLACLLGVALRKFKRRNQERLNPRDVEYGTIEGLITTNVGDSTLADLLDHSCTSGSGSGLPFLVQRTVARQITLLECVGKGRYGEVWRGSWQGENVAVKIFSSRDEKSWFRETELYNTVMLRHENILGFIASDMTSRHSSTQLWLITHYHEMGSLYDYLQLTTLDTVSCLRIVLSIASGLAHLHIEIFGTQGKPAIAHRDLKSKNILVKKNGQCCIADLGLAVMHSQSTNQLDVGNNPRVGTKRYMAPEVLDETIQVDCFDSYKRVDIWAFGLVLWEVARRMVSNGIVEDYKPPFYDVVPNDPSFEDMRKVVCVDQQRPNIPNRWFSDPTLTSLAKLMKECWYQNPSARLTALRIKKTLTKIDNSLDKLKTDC
UniProt P51828: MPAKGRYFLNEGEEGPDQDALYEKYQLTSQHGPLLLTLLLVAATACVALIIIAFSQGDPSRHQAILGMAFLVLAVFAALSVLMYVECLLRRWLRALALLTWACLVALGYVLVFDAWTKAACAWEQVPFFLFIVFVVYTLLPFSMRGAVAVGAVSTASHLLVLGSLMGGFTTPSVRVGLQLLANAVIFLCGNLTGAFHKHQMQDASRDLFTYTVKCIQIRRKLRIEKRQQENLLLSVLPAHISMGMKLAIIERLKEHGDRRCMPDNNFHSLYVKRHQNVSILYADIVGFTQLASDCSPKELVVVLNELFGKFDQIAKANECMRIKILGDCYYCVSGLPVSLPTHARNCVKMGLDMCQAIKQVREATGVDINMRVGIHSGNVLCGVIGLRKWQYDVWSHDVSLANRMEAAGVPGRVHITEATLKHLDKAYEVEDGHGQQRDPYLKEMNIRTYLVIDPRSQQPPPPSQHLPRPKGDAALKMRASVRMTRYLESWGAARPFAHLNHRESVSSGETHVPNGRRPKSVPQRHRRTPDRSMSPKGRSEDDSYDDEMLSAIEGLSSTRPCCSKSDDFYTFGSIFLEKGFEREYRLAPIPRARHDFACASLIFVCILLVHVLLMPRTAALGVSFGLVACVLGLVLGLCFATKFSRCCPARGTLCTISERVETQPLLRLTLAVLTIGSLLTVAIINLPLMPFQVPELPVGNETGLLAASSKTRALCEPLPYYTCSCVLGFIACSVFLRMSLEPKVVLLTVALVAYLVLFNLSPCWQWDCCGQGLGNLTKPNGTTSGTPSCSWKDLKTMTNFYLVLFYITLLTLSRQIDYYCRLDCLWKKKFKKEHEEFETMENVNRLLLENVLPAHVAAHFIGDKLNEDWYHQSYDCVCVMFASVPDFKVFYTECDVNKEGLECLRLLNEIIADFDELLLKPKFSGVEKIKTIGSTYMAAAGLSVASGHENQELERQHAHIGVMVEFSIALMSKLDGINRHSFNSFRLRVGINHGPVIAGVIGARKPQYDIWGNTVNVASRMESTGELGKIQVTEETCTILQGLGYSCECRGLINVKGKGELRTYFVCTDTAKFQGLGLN
UniProt Q63HM1: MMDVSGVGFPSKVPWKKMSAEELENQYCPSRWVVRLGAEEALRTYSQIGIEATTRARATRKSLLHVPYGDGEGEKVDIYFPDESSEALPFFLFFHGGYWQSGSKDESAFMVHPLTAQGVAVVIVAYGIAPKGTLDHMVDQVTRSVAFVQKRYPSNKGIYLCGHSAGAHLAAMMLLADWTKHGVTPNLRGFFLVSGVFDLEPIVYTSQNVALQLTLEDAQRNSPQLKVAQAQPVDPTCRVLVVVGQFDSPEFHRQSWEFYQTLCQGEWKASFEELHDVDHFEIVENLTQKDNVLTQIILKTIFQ
UniProt Q9UEY8: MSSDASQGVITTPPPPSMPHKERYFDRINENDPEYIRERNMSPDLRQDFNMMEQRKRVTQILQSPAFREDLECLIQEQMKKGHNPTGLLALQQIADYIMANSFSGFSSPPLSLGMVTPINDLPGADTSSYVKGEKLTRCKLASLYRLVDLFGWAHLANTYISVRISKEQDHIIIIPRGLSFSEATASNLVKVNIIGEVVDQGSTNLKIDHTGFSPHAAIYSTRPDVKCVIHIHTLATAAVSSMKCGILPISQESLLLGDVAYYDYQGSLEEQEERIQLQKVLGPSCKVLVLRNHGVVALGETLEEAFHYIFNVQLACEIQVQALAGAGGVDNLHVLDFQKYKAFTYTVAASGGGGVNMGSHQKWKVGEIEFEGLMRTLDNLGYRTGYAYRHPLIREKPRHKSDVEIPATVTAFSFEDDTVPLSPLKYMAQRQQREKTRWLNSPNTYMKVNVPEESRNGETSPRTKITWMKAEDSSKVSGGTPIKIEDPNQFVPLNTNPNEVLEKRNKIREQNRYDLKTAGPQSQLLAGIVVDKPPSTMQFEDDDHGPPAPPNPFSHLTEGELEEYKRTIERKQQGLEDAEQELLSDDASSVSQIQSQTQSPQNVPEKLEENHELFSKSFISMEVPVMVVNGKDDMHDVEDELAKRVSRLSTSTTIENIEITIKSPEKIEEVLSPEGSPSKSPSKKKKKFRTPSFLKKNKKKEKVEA

Assays:
Assay in all cases: log2 fold change, soluble protein after heating vs DMSO (PISA); higher = thermal stabilisation; K562 lysate, 10 uM; active = over 0.2 and 3.5 SD of the protein, either way, in both replicates (recomputed)
[1] = compound: C#Cc1cccc(Nc2ncnc3cc(OCCOC)c(OCCOC)cc23)c1 [erlotinib]
Outline: (§1)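 Quantification was by TMTpro 16plex LC-MS/MS with equalised channel sums, applied to the supernatant after 21,000xg for 90 min. Samples were crude K562 extract at 1 mg/mL protein in PBS pH 7.4 with 1 mM MgCl2, treated with 10 μM compound for 30 min, heated for 3 min across 48°C-58°C, pooled and brought to 0.5% NP-40 at 4°C. Values are log-two fold changes in thermal stability relative to solvent controls, from duplicates.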

[2] = compound: C1=CC(=CC=C1C2=NC3=C(N2)C=C(C=C3)C(=O)N)OC4=CC=C(C=C4)Cl
Outline: as §1

[3] = compound: C1=CC2=NC=CN=C2C=C1/C=C/3\C(=O)NC(=O)S3
Outline: as §1

[4] = compound: C1=CC=C(C=C1)C2=NC(=C(N2)C3=CC=NC=C3)C4=CC(=C(C=C4)Cl)O
Outline: as §1

[5] = compound: C1COCCN1CCN2C3=CC=CC=C3N=C2NC(=O)C4=CC(=CC=C4)[N+](=O)[O-] [IRAK-1-4 Inhibitor I]
Outline: as §1

[6] = compound: C=CC(=O)N1CCC[C@@H](n2nc(-c3ccc(Oc4ccccc4)cc3)c3c(N)ncnc32)C1 [ibrutinib]
Outline: as §1

[7] = compound: CC(=O)c1cnc2ccc(-c3cc(Cl)c(O)c(Cl)c3)nc2c1N[C@H]1CC[C@H](CN(C)C)CC1
Outline: as §1

[8] = compound: CC(C)(C)Cn1c(N)nc2ccc(-c3[nH]c(C(C)(C)C)nc3-c3ccc(F)cc3)nc21 [ralimetinib]
Outline: as §1

[9] = compound: CC(C)(O)CC(=O)NCCn1ccc2ncnc(Nc3ccc(Oc4cccc(C(F)(F)F)c4)c(Cl)c3)c21
Outline: as §1

[10] = compound: CC(C)C1=C2N=C(C=C(N2N=C1)NCC3=CC=CC=C3)NCCCCCCN
Outline: as §1

[11] = compound: CC1=C(C=C(C=C1)NC(=O)C2=CC(=CC=C2)N(C)C)NC(=O)C3=CC=C(C=C3)O
Outline: as §1

[12] = compound: CC1=CC=C(C=C1)SC2=C3C=C(SC3=CN=C2)C(=O)N
Outline: as §1

[13] = compound: C/C(=N\NC(=O)C1=CC(=CC=C1)S(=O)(=O)N2CCOCC2)/C3=C(C=CC(=C3)Cl)O
Outline: as §1

[14] = compound: C1=CC2=C(C=CC(=C2)/C=C\3/C(=O)NC(=NCC4=CC=CS4)S3)N=C1
Outline: as §1

[15] = compound: C1=CC=C2C(=C1)C3=NNC4=CC=CC(=C43)C2=O
Outline: as §1

[16] = compound: C1CCN(C1)C(=O)NC2=CC=CC(=C2)NC3=NC=C(C(=N3)NCCC4=CN=CN4)Br
Outline: as §1

[17] = compound: C1CN(CCC1(CC2=CC=C(C=C2)Cl)N)C3=NC=NC4=C3C=CN4
Outline: as §1

[18] = compound: CC1=C(C2=C(C=C1)C(=O)C3=CC=CC=C3N2CCCN)C
Outline: as §1

[19] = compound: CC1=C(C(CC(=O)N1)C2=CC=C(C=C2)C(F)(F)F)C(=O)NC3=C(C=C4C(=C3)C=NN4)F
Outline: as §1

[20] = compound: CC1=C(C=C(C=C1)NC(=O)C2=CC(=CC=C2)C(C)(C)C#N)NC3=CC4=C(C=C3)N=CN(C4=O)C
Outline: as §1

Measured: log2 fold change

ACSL6 isoform 1 (UniProt Q9UKU0)
inactive: [1] -0.032 | [2] -0.312 | [3] 0.025 | [4] 0.007 | [5] -0.031 | [6] 0.035 | [7] 0.056 | [8] 0.098 | [9] -0.028 | [10] -0.01 | [11] 0.085 | [12] 0.068

ADAD1 (UniProt Q96M93)
inactive: [13] 0.629 | [14] -0.016 | [4] -0.058 | [15] 0.034 | [16] -0.097 | [17] -0.103 | [5] 0 | [7] -0.032 | [8] 0.005 | [9] -0.092 | [18] -0.015 | [11] 0.015 | [12] -0.066

AHSP (UniProt Q9NZD4)
inactive: [13] -0.016 | [14] -0.001 | [3] -0.036 | [15] -0.108 | [16] 0.049 | [17] -0.055 | [6] -0.009 | [7] -0.069 | [19] 0.004 | [12] 0.124

ADCK1 (UniProt Q86TW2)
inactive: [13] -0.243 | [14] 0.128 | [15] 0.066 | [16] -0.122 | [17] 0.146

ACP5 (UniProt P13686)
inactive: [1] 0.077 | [2] -0.552 | [10] 0.064

AHCTF1 isoform 2 (UniProt Q8WYP5)
inactive: [1] 0.086 | [2] -0.029 | [4] 0.058 | [5] 0.038 | [7] -0.023 | [8] -0.088 | [9] 0 | [10] 0.05 | [11] 0.057 | [12] -0.029

AGO2 (UniProt E5RJY2)
inactive: [7] -0.036 | [19] -0.252 | [12] -0.015

ACSS3 (UniProt Q9H6R3)
inactive: [3] -0.046 | [6] 0.041

ACTB, A0A2R8YGF8
inactive: [13] 0.791 | [14] 0.753 | [3] -0.107 | [15] -0.112 | [6] -0.037

AJUBA (UniProt Q96IF1)
inactive: [18] -0.183 | [20] 0.217

ACVR1 (UniProt Q04771)
inactive: [3] 0.074 | [6] -0.047 | [19] -0.152 | [18] -0.02

ADPRM (UniProt Q3LIE5)
inactive: [13] -0.101 | [14] -0.172 | [3] 0.081 | [4] 0.116 | [15] -0.051 | [16] 0.034 | [17] 0.052 | [5] -0.025 | [6] -0.418 | [8] -0.035 | [9] -0.128 | [20] -0.39 | [11] 0.078

ACTN4 (UniProt H7C144)
inactive: [4] -0.185 | [5] 0.051 | [8] 0.079 | [9] -0.017 | [18] -0.064 | [11] 0.025

ADCY7 (UniProt P51828)
inactive: [1] -0.017 | [2] 0.174 | [10] -0.159 | [19] 0.083 | [18] -0.27

ACTB, A0A2R8YEA7
inactive: [13] -0.059 | [14] -0.157 | [15] 0.215 | [7] -0.073 | [19] -0.024 | [12] 0.174

ACOX3 (UniProt O15254)
inactive: [3] -0.081 | [16] -0.253 | [17] 0.068 | [6] -0.084 | [18] 0.087

ADK, A0A5F9ZH76
inactive: [3] 0 | [6] 0.168 | [7] 0.005 | [19] -0.156 | [12] 0

ADAT1 (UniProt Q9BUB4)
inactive: [3] -0.05 | [6] 0.087

AKR1B10 (UniProt O60218)
inactive: [4] -0.792 | [5] -0.929 | [8] 1.16 | [9] 0.981 | [18] 1.93 | [11] 1.48

AHDC1 (UniProt Q5TGY3)
inactive: [3] 0.278 | [6] 0

AFDN (UniProt A8MQ02)
inactive: [13] 0.251 | [14] -0.047 | [15] 0.123 | [7] 0.085 | [12] 0.018

AFMID isoform 2 (UniProt Q63HM1)
inactive: [13] 0.056 | [14] 0.023 | [4] -0.007 | [15] -0.087 | [16] -0.056 | [17] -0.083 | [5] -0.092 | [8] 0.12 | [9] 0.065 | [20] 0.192 | [11] 0.028

AFDN (UniProt H0Y948)
inactive: [20] -0.065

ACTB (UniProt C9JUM1)
inactive: [3] -0.474 | [6] 0.034 | [7] 0.095 | [19] 0.114 | [12] 0.146

ACSS1 (UniProt Q9NUB1)
inactive: [3] -0.034 | [4] 0.166 | [16] -0.069 | [17] 0.067 | [5] 0.091 | [6] 0.074 | [7] -0.073 | [8] -0.13 | [9] -0.071 | [19] -0.134 | [18] -0.044 | [20] 0.024 | [11] 0.06 | [12] -0.198

Copied from the listing (2 entries):
ACTB (UniProt C9JUM1)
inactive: [3] -0.474 | [6] 0.034 | [7] 0.095 | [19] 0.114 | [12] 0.146

ACSS1 (UniProt Q9NUB1)
inactive: [3] -0.034 | [4] 0.166 | [16] -0.069 | [17] 0.067 | [5] 0.091 | [6] 0.074 | [7] -0.073 | [8] -0.13 | [9] -0.071 | [19] -0.134 | [18] -0.044 | [20] 0.024 | [11] 0.06 | [12] -0.198

(listing goes on)

ACTN4 (UniProt K7EJH8)
inactive: [3] -0.026 | [4] 0.012 | [16] 0 | [17] -0.087 | [5] 0.064 | [6] 0.146 | [7] 0.044 | [8] -0.024 | [9] 0.027 | [19] -0.096 | [18] -0.061 | [20] 0.064 | [11] 0.007 | [12] -0.052

ACTG1 (UniProt K7EM38)
inactive: [16] -0.162 | [17] -0.155 | [7] -0.044 | [12] 0.152

ADCK5 (UniProt Q3MIX3)
inactive: [16] 0.112 | [17] 0.119 | [7] -0.084 | [19] -0.008 | [18] -0.116 | [20] 0.031 | [12] -0.016

AKR7L (UniProt Q8NHP1)
inactive: [7] 0.027 | [19] 0.121 | [18] 0.074 | [20] 0.083 | [12] 0.027

AGTRAP isoform 2 (UniProt Q6RW13)
inactive: [3] -0.07 | [6] 0.07 | [7] -0.121 | [12] 0.005

ADCY3 (UniProt O60266)
inactive: [1] 0.011 | [2] 0.211 | [4] 0.089 | [5] -0.05 | [8] -0.083 | [9] -0.037 | [10] 0.367 | [18] 0.075 | [11] 0.011

AIMP2 isoform 2 (UniProt Q13155)
inactive: [3] 0.056 | [4] 0.061 | [5] 0.006 | [6] -0.28 | [7] 0.064 | [8] 0.061 | [9] -0.036 | [20] 0.089 | [11] 0.023 | [12] 0

ACTB (UniProt C9JTX5)
inactive: [13] 0.054 | [14] -0.064 | [3] -0.24 | [15] 0.116 | [6] 0.198 | [7] 0.101 | [19] 0.063 | [18] -0.094 | [20] -0.11 | [12] 0.112

ADD3 isoform 2 (UniProt Q9UEY8)
inactive: [20] -0.004

AFM (UniProt P43652)
inactive: [13] 0.026 | [14] -0.05 | [15] 0.049 | [16] 0.086 | [17] 0.042
